Earlier results as cited in US20070082063A1, “Risk assessment and correction of membrane damage of the upper GI tract” (priority 2005, published 2007).

Conditions: dogs

**Q.** With `CCCCC/C=C\C/C=C\C/C=C\C/C=C\CCCC(=O)O` [ARA, arachidonic acid] as the compound, how does the “level in plasma phospholipids” value read?
**A.** 20-30%

**Q.** And the “level in red cell membranes” value?
**A.** 18-25%
